Legend:
[1] = DEER of doubly labeled PA-2/12 (intra-monomer distance, alpha-helical character)
polyU = assay: CW-EPR of PA-12 in the presence of polyU (bound, slow-motion population); format: binding
Protocol: Lyophilized, spin-labeled peptides were dissolved in Milli-Q water and centrifuged at 4000 rpm for 10 min to remove insoluble aggregates. The soluble fractions were used to prepare stock solutions of 250–500 μM peptide. Labeled peptide concentrations were determined by comparing the area under the curve of the EPR signal against that of standard solutions of 10–285 μM TEMPO. For the EPR measurements in D2O, 200 μL of the stock solution was lyophilized and re-dissolved in D2O. The concentration of the unlabeled peptide stock solutions was determined using the bicinchoninic acid assay (Thermo Fisher Scientific) and ranged from 0.8 to 1.2 mM peptide. A stock solution of 500 mM MES, pH 5.6 was used to adjust all samples to a final concentration of 50 mM MES, pH 5.6. Aliquots of 10 mg/mL polyuridylic acid (polyU; Sigma Aldrich) were prepared in Milli-Q water and diluted as necessary. For CW-EPR measurements, a quartz capillary of 0.6 mm i.d. and 0.84 mm o.d. was filled with 7–8 μL of the sample and sealed with Critoseal (Fisherbrand, Fisher Scientific) at one end. A single capillary was placed in an X-band EPR tube of 2 mm i.d. and 2.4 mm o.d. for measurements, except for spin concentration below 50 μM, where two capillaries were used.
Each sample was freshly prepared and the time to collect […] CW-EPR data was 30–40 min.
CW-EPR spectra were recorded on an Elexsys E500 X-Band (9.5 GHz) Bruker spectrometer using a high sensitivity resonator at room temperature. The following parameters were used: 0.1 mT field modulation amplitude, a 15 mT scan range, and 20 mW microwave power. Each scan was 42 s and at least 9 scans were accumulated for each data set. For samples with a high concentration of polyU or a low concentration of labeled peptide, at least 25–36 scans were collected to improve the signal to noise (S/N) ratio. Simulations of the spectra were performed using the “Chili” routine of EasySpin (www.easyspin.org).[21]
After characterizing the dynamic and structural properties of PA in solution, we proceeded to explore these properties upon interaction with the homopolymeric RNA molecule polyU. […] PA-12, like the unlabeled peptide, produced coacervates.[17] […] Using CW-EPR, binding of PA to RNA can be tracked through spin label dynamics. We initially kept the concentration of PA-12 constant at 150 μM and varied the amount of polyU. The CW-EPR spectra in Figure 3B indicate superposition of two populations, I and II. […] The relative intensity of II increases with the amount of polyU added, indicating binding of PA-12 to polyU. The percentage of II increased from 32% at 0.1 mg/mL polyU to 93% at 1 mg/mL polyU. Increasing to 2 mg/mL polyU and reducing the PA-12 concentration to 100 μM increased the population of II to 95% (Figures 3B and S15G). Such restricted motion and dynamic components have also been reported for proteins undergoing phase separation.[38],[39]

[2] = 100 μM PA-2/12 in 3 M guanidinium chloride

| Sequence | DEER modulation depth, denatured sample [1, 2] | centre of broad distance distribution (denatured) [1, 2] | distance distribution, longer maximum ([1]; spin-diluted: 20 μM PA-2/12 in 200 μM total PA, MES pH 5.6, D2O, 20% glycerol-d8, assigned to unfolded α-helix) | distance distribution, shorter maximum ([1]; spin-diluted: 20 μM PA-2/12 in 200 μM total PA, MES pH 5.6, D2O, 20% glycerol-d8, assigned to α-helix) | rotational correlation time, component I (polyU; 30 μM PA-12, 1 mg/mL polyU) | rotational correlation time, component II (polyU; 30 μM PA-12, 1 mg/mL polyU) | rotational correlation time, component I (polyU; 50 μM PA-12, 1 mg/mL polyU) | rotational correlation time, component II (polyU; 50 μM PA-12, 1 mg/mL polyU) | rotational correlation time, component I (polyU; 100 μM PA-12, 1 mg/mL polyU) | rotational correlation time, component II (polyU; 100 μM PA-12, 1 mg/mL polyU) | rotational correlation time, component I (polyU; 150 μM PA-12, 1 mg/mL polyU) | rotational correlation time, component II (polyU; 150 μM PA-12, 1 mg/mL polyU) | rotational correlation time, component I (polyU; 200 μM PA-12, 1 mg/mL polyU) | rotational correlation time, component II (polyU; 200 μM PA-12, 1 mg/mL polyU) |
| --- | --- | --- | --- | --- | --- | --- | --- | --- | --- | --- | --- | --- | --- | --- |
| RCRRASVEELTCVPGIGPRLARRILERLA [PA-2/12, PA with spin labels at positions 2 and 12, which span the first α-helix of the HhH motif] | 2.7% | 3.3 nm | 3.3 nm | 2.6 nm |  |  |  |  |  |  |  |  |  |  |
| RIRRASVEELTCVPGIGPRLARRILERLA [PA-12, Precursor-Arg peptide in which position 12 has been modified with a cysteine and attached to an M-TEMPO spin label] |  |  |  |  | 0.75 ± 0.05 ns | 9.6 ± 1.4 ns | 0.69 ± 0.13 ns | 10.6 ± 1.9 ns | 0.53 ± 0.07 ns | 11.6 ± 1.6 ns | 0.52 ± 0.12 ns | 11.9 ± 1.4 ns | 0.52 ± 0.12 ns | 13.5 ± 2.3 ns |
